No constants are given. Whether binding was seen depends on the method and setting. Binding seen in cells or lysates may run through a third protein. Some results given as binding are weak or reduced against the parent protein; the word gives no strength. Where a sequence is shown, tags or fusion partners need not be part of it.
Target: full-length human presenilin 2 (PS2) expressed in HeLa cells (human) (UniProt P49810)
Assay: coimmunoprecipitation with rabbit anti-PS2, 3H-myristic acid fluorography

binding: binds
B1: C-myc calmyrin (calmyrin with in-frame COOH-terminal myc epitope) (protein, not shown: small tags and cut ends)
chain: GGSGSRLSKELLAEYQDLTFLTKQEILLAHRRFCELLPQEQRTVESSLRAQVPFEQILSLPELKANPFKERICRVFSTSPAKDSLSFEDFLDLLSVFSDTATPDIKSHYAFRIFDFDDDGTLNREDLSRLVNCLTGEGEDTRLSASEMKQLIDNILEESDIDRDGTINLSEFQHVISRSPDFASSFKIVL
modifications: myristoylated (3H-myristic acid label)
